These are yes or no findings as the source states them, for the method shown. Binding seen in cells or lysates may run through a third protein. Some results given as binding are weak or reduced against the parent protein; the word gives no strength.
Columns and labels:
[1] = biological target: T1, RTEL1 helicase (human (endogenous in U2OS)) (UniProt Q9NZ71); experiment: co-IP; endogenous proteins from U2OS lysates, cells with or without HU (2 mM, 4 h); HEPES-Triton buffer (35 mM HEPES KOH pH 7.6, 200 mM NaCl, 1 mM EDTA, 0.75% Triton X-100, 8% glycerol), 3 ug antibody overnight at 4 C, protein A beads; without benzonase treatment; immunoblot
T1 sequence: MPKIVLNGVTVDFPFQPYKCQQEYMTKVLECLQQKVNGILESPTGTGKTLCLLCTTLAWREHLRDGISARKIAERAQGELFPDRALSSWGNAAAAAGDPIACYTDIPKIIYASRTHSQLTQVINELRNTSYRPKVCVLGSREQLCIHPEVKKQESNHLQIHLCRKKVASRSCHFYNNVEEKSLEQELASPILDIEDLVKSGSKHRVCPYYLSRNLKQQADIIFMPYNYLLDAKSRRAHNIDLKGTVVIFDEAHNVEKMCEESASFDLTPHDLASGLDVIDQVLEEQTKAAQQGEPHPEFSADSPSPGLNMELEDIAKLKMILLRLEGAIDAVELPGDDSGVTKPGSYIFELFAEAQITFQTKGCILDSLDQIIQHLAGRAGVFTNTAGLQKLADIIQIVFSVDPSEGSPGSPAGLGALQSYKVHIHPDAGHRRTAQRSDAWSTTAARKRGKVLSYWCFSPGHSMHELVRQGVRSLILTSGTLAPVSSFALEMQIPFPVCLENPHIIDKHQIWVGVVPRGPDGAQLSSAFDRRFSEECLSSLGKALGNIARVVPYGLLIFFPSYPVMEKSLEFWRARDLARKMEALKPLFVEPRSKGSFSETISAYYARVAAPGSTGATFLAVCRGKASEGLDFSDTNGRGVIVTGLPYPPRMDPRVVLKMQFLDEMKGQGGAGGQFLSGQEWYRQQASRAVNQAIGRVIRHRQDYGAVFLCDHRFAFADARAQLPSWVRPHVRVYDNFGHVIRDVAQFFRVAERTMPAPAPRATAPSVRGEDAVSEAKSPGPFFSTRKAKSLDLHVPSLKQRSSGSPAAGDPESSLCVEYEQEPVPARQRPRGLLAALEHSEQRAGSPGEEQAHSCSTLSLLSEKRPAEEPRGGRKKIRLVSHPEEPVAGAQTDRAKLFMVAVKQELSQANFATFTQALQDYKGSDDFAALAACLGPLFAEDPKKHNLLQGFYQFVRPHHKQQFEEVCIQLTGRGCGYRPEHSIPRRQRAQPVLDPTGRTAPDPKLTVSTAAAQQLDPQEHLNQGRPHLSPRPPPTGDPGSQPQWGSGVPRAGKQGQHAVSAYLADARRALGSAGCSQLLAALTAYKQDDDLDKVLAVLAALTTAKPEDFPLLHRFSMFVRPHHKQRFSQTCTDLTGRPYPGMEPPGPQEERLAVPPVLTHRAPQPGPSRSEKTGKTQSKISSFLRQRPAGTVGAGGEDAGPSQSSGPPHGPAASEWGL

Amino acid sequences for entries named in this document (tags omitted).
UniProt O94762: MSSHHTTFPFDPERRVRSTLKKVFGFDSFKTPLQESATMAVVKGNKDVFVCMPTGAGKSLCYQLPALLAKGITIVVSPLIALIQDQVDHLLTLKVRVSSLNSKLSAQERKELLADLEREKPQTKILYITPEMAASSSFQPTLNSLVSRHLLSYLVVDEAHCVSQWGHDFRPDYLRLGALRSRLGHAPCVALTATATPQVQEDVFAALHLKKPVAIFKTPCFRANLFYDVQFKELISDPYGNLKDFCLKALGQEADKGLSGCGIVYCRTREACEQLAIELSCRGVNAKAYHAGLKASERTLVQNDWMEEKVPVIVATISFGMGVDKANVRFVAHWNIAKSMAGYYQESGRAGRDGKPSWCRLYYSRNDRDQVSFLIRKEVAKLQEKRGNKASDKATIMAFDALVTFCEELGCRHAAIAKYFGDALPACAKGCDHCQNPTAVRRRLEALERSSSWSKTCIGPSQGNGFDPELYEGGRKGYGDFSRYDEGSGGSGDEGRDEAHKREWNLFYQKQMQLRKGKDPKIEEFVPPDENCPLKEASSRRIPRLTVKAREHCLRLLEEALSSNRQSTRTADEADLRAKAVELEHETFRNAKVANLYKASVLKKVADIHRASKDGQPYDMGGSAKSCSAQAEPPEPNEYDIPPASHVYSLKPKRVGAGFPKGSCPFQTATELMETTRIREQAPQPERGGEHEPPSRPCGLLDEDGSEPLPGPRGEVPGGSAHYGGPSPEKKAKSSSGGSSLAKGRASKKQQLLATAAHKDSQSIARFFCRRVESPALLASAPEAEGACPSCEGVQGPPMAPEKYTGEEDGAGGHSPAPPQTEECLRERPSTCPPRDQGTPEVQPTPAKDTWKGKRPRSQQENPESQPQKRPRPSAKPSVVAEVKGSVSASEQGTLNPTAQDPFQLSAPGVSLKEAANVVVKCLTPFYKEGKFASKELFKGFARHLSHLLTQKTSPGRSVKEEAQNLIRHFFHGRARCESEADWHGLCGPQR
UniProt Q06609: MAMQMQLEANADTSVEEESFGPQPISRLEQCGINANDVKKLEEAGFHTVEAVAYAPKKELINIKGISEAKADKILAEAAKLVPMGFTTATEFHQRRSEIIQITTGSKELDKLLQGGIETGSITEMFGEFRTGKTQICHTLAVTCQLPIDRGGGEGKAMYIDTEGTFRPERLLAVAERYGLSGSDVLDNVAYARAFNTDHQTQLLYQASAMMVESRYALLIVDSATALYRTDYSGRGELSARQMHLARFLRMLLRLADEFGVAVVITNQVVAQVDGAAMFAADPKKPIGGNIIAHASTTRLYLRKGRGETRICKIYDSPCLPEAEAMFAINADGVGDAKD

[2] = biological target: RECQL5 helicase (human (endogenous in U2OS)) (UniProt O94762); experiment: as above

In the case of “RAD51 recombinase (from UniProt Q06609 1-339)”, the binding [1] is reported as “binds” and the binding [2] is reported as “binds”.

“RECQL5 helicase (from UniProt O94762 1-991)” was tested, and the binding [1] was “binds”.

B1: RTEL1 helicase (protein, UniProt Q9NZ71 1-1219)
chain: T1 sequence
B1 was tested, and the binding [2] was “binds”.

Reference: publication PMC12526125
